Some of the results follow.
Target: OsWRKY34 (Oryza sativa, UniProt Q0JBA9 1-250)
Assay: protein-binding microarray (RPBM); PBS, 2% BSA, 51.3 ng/ul salmon testes DNA, 50 uM zinc acetate, 200 nM TF, 25 C, 1 h; high values mean tight binding
Settings: protein: recombinant; tags: N-terminal polyhistidine and DsRed monomer fusion (pET32a); label: CyDye5-dUTP incorporated in the synthesized complementary strand; 3' TTTTT single-stranded linker to array surface; dsDNA, one strand shown
Method in brief: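 Binding signal is reported as fluorescence intensity per feature (arbitrary units) from an Axon 4000B scanner. Incubation used 200 nM of each Ni–NTA-purified, N-terminally polyhistidine- and DsRed-fused transcription factor from E. coli BL21-CodonPlus on a double-stranded custom Agilent array for 1 h at 25 °C, with 50 µM zinc acetate in the buffer, followed by washing.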

Sequences of proteins named here, by UniProt entry; tags and fusion partners are left off.
UniProt Q0JBA9, entry or part of it: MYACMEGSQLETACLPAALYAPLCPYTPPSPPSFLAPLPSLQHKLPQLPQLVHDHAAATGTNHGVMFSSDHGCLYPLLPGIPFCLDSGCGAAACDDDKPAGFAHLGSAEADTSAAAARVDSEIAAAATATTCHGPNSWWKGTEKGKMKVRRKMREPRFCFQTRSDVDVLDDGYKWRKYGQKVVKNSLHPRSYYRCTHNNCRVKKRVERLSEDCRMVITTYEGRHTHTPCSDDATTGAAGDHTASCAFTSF

Row | Sequence | binding signal
1 | ACAGGATCCAACTATTATTCCTCATGCTCTTCTCTTAGGTCGGAGTCACCTAGTGCAG | 9010 fluorescence intensity (a.u.)
2 | ACTGTACTCCCACGTTTACTAAAACCACCGCGAATTGGGTCGGAGTCACCTAGTGCAG | 9690 fluorescence intensity (a.u.)
3 | GTTCGTAGGGGTAGGATTTGCATGCGTGTATTTGTAGGGGCGGAGTCACCTAGTGCAG | 13700 fluorescence intensity (a.u.)
4 | CGACGCCGACCTCATGGCCCGCGCCACCACCACCCGCGCCCGGAGTCACCTAGTGCAG | 8220 fluorescence intensity (a.u.)
5 | AGTTAATTATGTGCCGGTCCCCGCTGTTGTCCACCATCCGCGGAGTCACCTAGTGCAG | 9010 fluorescence intensity (a.u.)
6 | GACGGCGCCCTGCGGCTTCGGTTGCGGGGTGGGTGGTGGCCGGAGTCACCTAGTGCAG | 10300 fluorescence intensity (a.u.)
7 | GCTCATATTCCCGATTGATATGTTGGTGAATGGTAATTTTCGGAGTCACCTAGTGCAG | 9760 fluorescence intensity (a.u.)
8 | GACGCGGTCCACGGAACACCACCACCTCATTTTTGGCGGGCGGAGTCACCTAGTGCAG | 9380 fluorescence intensity (a.u.)
9 | CACCCCGGTTCGGGAAGATTCGTCCATGGCTGCCCTGTCGCGGAGTCACCTAGTGCAG | 8370 fluorescence intensity (a.u.)
10 | TTTTTTTTCTTTCTGTTCTGTTTCTGTTGAGAAACAAAGACGGAGTCACCTAGTGCAG | 8450 fluorescence intensity (a.u.)
11 | GGGGCGGAAACGGGCGAGGGAGGCGCGGGGAGGGTTTAAACGGAGTCACCTAGTGCAG | 22600 fluorescence intensity (a.u.)
12 | TCGACTCCACCACACTCCAGTCCAGTCCAGTACACTCCGCCGGAGTCACCTAGTGCAG | 9040 fluorescence intensity (a.u.)
13 | TAGTTCCAAAATATTTCTTCAAACTTCAAACTTCTTCATCCGGAGTCACCTAGTGCAG | 8610 fluorescence intensity (a.u.)
14 | CCACCTGTCATCGTCACCGTTAAGCAAAAACGACTTTTCACGGAGTCACCTAGTGCAG | 8380 fluorescence intensity (a.u.)
15 | CCATATATTTTTTTAACTTTTTCCTTTTGTTTTTTATTTTCGGAGTCACCTAGTGCAG | 8870 fluorescence intensity (a.u.)
16 | TCCGTTTTGCAGTTGTGGCATCTTCAAGGGTTCTTCCGGACGGAGTCACCTAGTGCAG | 8530 fluorescence intensity (a.u.)
17 | CTTGGTTAATTTCCTTTGAGTCTATCTCTCTCATCCAATTCGGAGTCACCTAGTGCAG | 8900 fluorescence intensity (a.u.)
18 | AGTCCATCTAATTCGGCTGCACTCTTTTTCCCCTGTGAAGCGGAGTCACCTAGTGCAG | 8530 fluorescence intensity (a.u.)
19 | CCCAGTCTCCTTCTATACATATACGTGTACCCTCTGCTTCCGGAGTCACCTAGTGCAG | 8580 fluorescence intensity (a.u.)
20 | TGCGTATCTTCAGCCTCGTTAATTTCCATGTTACTAGTATCGGAGTCACCTAGTGCAG | 8610 fluorescence intensity (a.u.)
21 | GCGTGTTAAAAAAACGGCCACAGTCAACCACCAAAACTATCGGAGTCACCTAGTGCAG | 8120 fluorescence intensity (a.u.)

Reprinted: nos. 4–6
Row | Sequence | binding signal
4 | CGACGCCGACCTCATGGCCCGCGCCACCACCACCCGCGCCCGGAGTCACCTAGTGCAG | 8220 fluorescence intensity (a.u.)
5 | AGTTAATTATGTGCCGGTCCCCGCTGTTGTCCACCATCCGCGGAGTCACCTAGTGCAG | 9010 fluorescence intensity (a.u.)
6 | GACGGCGCCCTGCGGCTTCGGTTGCGGGGTGGGTGGTGGCCGGAGTCACCTAGTGCAG | 10300 fluorescence intensity (a.u.)

(next part)

Row | Sequence | binding signal
22 | CTGTAAATCATATACACTTCTTGGAATGACGCTTTAATTCCGGAGTCACCTAGTGCAG | 8540 fluorescence intensity (a.u.)
23 | TGTTGGAATTCAATGAGTGTTTGTTGTGTATCCTTCTGATCGGAGTCACCTAGTGCAG | 8100 fluorescence intensity (a.u.)
24 | GGCCACTCCTCCACGCACACACCTCTCTCTCTCTCTCTCTCGGAGTCACCTAGTGCAG | 9210 fluorescence intensity (a.u.)
25 | AAGGAAAGCAATAAACACAGTAACTCCACCCAACTATTTCCGGAGTCACCTAGTGCAG | 9620 fluorescence intensity (a.u.)
26 | TATTGTTTGCCTTCCAGCGTATATAAGCCATTGCGAAATTCGGAGTCACCTAGTGCAG | 8180 fluorescence intensity (a.u.)
27 | CTGTCTCAACCTGCATTTGCTCTGTTCCAAAATTCTCTCCCGGAGTCACCTAGTGCAG | 10700 fluorescence intensity (a.u.)
28 | CTCCCCACTCACCATCTCCCCGTGGTGTCCTCCGCGGCTCCGGAGTCACCTAGTGCAG | 8800 fluorescence intensity (a.u.)
29 | GGCTGCTATTCCGCTTCTTTCCGCTCGGACCAGCCCACTACGGAGTCACCTAGTGCAG | 10500 fluorescence intensity (a.u.)
30 | CCTCGATGCGAAAAACGAGTTTTTTTTTCTTCTTCGTCTTCGGAGTCACCTAGTGCAG | 11000 fluorescence intensity (a.u.)
31 | GCTCCGCTTCTCCTCTCCCATCTCTCGCTTCGCTCCGCTTCGGAGTCACCTAGTGCAG | 8800 fluorescence intensity (a.u.)
32 | ACTCCGACCACCACGCCCCGCCCATGGGTCCTCCGAGCGTCGGAGTCACCTAGTGCAG | 10100 fluorescence intensity (a.u.)
33 | GCTCCCGTTTTGGGCGACCTTGGGTCTCTTGGGGTCGGTGCGGAGTCACCTAGTGCAG | 8320 fluorescence intensity (a.u.)
34 | TTCAATGACAATGTTGACTTTTTGACAAACGTTTAACCTTCGGAGTCACCTAGTGCAG | 10200 fluorescence intensity (a.u.)
35 | CATCGTATCATATTTGGGTATTTTCTCCTTGATTAGCCAGCGGAGTCACCTAGTGCAG | 8270 fluorescence intensity (a.u.)
36 | CAGAGCCCGCGACATGCCTTGCCGCACCGCGCCGAGGCGTCGGAGTCACCTAGTGCAG | 8410 fluorescence intensity (a.u.)
37 | CTCCATCTCCTCCACCAAATCCCCTACTTTTCCCCAATTTCGGAGTCACCTAGTGCAG | 8640 fluorescence intensity (a.u.)
38 | GACGCGACGCGCCCAACCGCGCCCTCGCCTCGCCGCCATGCGGAGTCACCTAGTGCAG | 9160 fluorescence intensity (a.u.)
39 | ACCGGTTGGGTCAACCTTTCTATGTACGCTCTTATACACGCGGAGTCACCTAGTGCAG | 10000 fluorescence intensity (a.u.)
40 | GTGGAGGCGCGGTGGGGTGGGGAAGGAGTGTGTTTCGTGTCGGAGTCACCTAGTGCAG | 15500 fluorescence intensity (a.u.)
41 | TTTTTTAGTGTGTTGGCCCAGTCATTTTTGGCCTTTTTTGCGGAGTCACCTAGTGCAG | 8560 fluorescence intensity (a.u.)
42 | GACATCGCCGCCGGCATCCACCAGCCGCCGCCGCCCGACCCGGAGTCACCTAGTGCAG | 8640 fluorescence intensity (a.u.)

— PMC7819943, “Rice protein-binding microarrays: a tool to detect cis-acting elements near promoter regions in rice”
